{
  "sequences": {"note": "Protein sequences, listed by entry. Tags and fused reporters are not part of them. Residues count along the entry.", "UniProt Q9NYU2, residues 43-1555": "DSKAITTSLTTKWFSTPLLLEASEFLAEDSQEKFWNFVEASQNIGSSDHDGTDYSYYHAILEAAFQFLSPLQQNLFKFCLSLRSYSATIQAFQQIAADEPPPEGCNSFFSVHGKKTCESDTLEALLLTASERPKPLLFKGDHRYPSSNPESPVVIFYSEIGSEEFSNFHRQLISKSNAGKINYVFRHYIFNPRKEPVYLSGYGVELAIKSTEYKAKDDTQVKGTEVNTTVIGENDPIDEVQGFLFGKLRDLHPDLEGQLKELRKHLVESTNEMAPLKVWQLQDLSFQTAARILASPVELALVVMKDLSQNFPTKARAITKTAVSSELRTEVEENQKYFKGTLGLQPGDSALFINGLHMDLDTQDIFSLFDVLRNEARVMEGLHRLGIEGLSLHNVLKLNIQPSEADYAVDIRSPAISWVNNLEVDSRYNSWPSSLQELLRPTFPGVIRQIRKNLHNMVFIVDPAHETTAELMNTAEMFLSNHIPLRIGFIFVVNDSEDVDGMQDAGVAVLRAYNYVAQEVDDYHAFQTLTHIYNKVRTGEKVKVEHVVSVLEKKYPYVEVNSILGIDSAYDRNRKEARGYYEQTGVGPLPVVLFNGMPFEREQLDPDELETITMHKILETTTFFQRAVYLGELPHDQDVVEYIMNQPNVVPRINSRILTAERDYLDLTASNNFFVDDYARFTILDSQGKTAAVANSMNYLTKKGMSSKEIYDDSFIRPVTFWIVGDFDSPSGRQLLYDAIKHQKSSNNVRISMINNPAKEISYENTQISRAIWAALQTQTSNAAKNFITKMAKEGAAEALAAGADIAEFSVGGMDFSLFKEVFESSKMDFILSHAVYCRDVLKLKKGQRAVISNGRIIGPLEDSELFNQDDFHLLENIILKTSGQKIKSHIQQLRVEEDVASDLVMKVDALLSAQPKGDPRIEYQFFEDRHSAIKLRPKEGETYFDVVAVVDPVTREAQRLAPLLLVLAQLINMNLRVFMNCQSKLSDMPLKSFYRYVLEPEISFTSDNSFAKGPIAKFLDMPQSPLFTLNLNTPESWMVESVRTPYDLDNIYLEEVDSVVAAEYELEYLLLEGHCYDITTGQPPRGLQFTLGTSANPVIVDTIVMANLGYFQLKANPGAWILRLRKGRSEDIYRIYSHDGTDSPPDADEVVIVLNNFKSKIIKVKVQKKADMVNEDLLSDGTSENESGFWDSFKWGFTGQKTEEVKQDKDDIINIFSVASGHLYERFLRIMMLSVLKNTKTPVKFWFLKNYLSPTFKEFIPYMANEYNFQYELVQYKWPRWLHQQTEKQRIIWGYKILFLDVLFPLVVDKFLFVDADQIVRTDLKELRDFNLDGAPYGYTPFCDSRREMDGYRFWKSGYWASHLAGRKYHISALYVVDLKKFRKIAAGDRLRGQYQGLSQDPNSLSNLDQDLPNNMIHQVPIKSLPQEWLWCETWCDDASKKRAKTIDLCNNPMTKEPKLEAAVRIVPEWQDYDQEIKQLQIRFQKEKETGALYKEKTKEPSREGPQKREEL", "UniProt P14625, residues 22-803": "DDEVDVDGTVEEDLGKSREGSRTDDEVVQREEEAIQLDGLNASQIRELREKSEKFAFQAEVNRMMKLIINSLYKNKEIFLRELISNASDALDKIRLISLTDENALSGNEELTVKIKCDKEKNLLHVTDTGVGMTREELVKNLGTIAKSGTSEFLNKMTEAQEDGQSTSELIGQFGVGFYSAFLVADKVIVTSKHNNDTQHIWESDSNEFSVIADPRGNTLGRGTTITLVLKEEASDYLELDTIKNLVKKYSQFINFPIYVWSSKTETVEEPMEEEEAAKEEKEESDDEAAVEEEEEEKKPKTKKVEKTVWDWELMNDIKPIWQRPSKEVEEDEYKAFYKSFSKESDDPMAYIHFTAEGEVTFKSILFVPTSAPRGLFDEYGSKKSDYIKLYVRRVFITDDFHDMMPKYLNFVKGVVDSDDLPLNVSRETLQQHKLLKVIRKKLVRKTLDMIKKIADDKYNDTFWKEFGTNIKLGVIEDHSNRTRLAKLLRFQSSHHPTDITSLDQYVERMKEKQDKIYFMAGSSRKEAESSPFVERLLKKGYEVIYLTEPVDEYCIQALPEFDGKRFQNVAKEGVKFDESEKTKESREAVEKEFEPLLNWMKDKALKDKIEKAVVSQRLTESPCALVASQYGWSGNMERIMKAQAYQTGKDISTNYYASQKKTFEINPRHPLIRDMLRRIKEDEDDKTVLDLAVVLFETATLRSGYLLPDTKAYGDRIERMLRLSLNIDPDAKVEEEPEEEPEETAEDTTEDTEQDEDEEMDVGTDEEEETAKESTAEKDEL", "UniProt P62333": "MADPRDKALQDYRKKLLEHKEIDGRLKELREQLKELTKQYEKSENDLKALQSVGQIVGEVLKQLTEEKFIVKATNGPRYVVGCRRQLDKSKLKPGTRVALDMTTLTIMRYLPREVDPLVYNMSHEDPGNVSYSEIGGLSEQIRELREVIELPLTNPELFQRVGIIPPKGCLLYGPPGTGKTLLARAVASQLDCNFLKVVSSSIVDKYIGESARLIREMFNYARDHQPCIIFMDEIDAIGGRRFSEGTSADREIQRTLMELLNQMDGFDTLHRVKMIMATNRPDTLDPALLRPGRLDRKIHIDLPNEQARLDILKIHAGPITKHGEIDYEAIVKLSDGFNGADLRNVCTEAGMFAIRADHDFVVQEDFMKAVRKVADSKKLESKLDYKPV", "UniProt Q9UBS4, residues 23-358": "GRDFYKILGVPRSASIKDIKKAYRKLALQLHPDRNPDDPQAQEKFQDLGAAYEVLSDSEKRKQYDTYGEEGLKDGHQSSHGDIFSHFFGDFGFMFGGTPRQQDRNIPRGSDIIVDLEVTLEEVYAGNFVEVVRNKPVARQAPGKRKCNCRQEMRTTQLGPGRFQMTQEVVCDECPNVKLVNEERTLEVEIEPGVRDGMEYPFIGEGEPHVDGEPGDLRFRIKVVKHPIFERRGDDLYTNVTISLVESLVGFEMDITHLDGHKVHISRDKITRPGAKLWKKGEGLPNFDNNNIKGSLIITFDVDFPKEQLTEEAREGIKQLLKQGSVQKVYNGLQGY", "UniProt P27824, residues 21-592": "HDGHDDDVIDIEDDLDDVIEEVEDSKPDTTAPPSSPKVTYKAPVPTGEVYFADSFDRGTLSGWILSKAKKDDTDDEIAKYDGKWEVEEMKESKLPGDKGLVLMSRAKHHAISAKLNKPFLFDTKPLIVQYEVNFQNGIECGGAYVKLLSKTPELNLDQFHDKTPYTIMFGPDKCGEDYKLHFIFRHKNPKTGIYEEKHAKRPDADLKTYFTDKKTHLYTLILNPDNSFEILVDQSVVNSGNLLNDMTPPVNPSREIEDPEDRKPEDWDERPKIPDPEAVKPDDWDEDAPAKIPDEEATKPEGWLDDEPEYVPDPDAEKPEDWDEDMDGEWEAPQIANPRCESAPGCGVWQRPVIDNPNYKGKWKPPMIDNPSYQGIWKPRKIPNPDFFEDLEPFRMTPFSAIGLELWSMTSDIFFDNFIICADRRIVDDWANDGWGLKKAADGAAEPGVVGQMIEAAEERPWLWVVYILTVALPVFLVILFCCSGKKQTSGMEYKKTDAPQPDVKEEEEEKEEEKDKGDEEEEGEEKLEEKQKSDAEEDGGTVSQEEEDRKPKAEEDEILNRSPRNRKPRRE"},
  "source": "paper PMC7279049",
  "molecules": {"B1": {"name": "UDP-Glucose, glycoprotein glucosyltransferase UGGT2 (protein, UniProt Q9NYU1 28-1516)", "chain": "TVAASKSVTAHLAAKWPETPLLLEASEFMAEESNEKFWQFLETVQELAIYKQTESDYSYYNLILKKAGQFLDNLHINLLKFAFSIRAYSPAIQMFQQIAADEPPPDGCNAFVVIHKKHTCKINEIKKLLKKAASRTRPYLFKGDHKFPTNKENLPVVILYAEMGTRTFSAFHKVLSEKAQNEEILYVLRHYIQKPSSRKMYLSGYGVELAIKSTEYKALDDTQVKTVTNTTVEDETETNEVQGFLFGKLKEIYSDLRDNLTAFQKYLIESNKQMMPLKVWELQDLSFQAASQIMSAPVYDSIKLMKDISQNFPIKARSLTRIAVNQHMREEIKENQKDLQVRFKIQPGDARLFINGLRVDMDVYDAFSILDMLKLEGKMMNGLRNLGINGEDMSKFLKLNSHIWEYTYVLDIRHSSIMWINDLENDDLYITWPTSCQKLLKPVFPGSVPSIRRNFHNLVLFIDPAQEYTLDFIKLADVFYSHEVPLRIGFVFILNTDDEVDGANDAGVALWRAFNYIAEEFDISEAFISIVHMYQKVKKDQNILTVDNVKSVLQNTFPHANIWDILGIHSKYDEERKAGASFYKMTGLGPLPQALYNGEPFKHEEMNIKELKMAVLQRMMDASVYLQREVFLGTLNDRTNAIDFLMDRNNVVPRINTLILRTNQQYLNLISTSVTADVEDFSTFFFLDSQDKSAVIAKNMYYLTQDDESIISAVTLWIIADFDKPSGRKLLFNALKHMKTSVHSRLGIIYNPTSKINEENTAISRGILAAFLTQKNMFLRSFLGQLAKEEIATAIYSGDKIKTFLIEGMDKNAFEKKYNTVGVNIFRTHQLFCQDVLKLRPGEMGIVSNGRFLGPLDEDFYAEDFYLLEKITFSNLGEKIKGIVENMGINANNMSDFIMKVDALMSSVPKRASRYDVTFLRENHSVIKTNPQENDMFFNVIAIVDPLTREAQKMAQLLVVLGKIINMKIKLFMNCRGRLSEAPLESFYRFVLEPELMSGANDVSSLGPVAKFLDIPESPLLILNMITPEGWLVETVHSNCDLDNIHLKDTEKTVTAEYELEYLLLEGQCFDKVTEQPPRGLQFTLGTKNKPAVVDTIVMAHHGYFQLKANPGAWILRLHQGKSEDIYQIVGHEGTDSQADLEDIIVVLNSFKSKILKVKVKKETDKIKEDILTDEDEKTKGLWDSIKSFTVSLHKENKKEKDVLNIFSVASGHLYERFLRIMMLSVLRNTKTPVKFWLLKNYLSPTFKEVIPHMAKEYGFRYELVQYRWPRWLRQQTERQRIIWGYKILFLDVLFPLAVDKIIFVDADQIVRHDLKELRDFDLDGAPYGYTPFCDSRREMDGYRFWKTGYWASHLLRRKYHISALYVVDLKKFRRIGAGDRLRSQYQALSQDPNSLSNLDQDLPNNMIYQVAIKSLPQDWLWCETWCDDESKQRAKTIDLCNNPKTKESKLKAAARIVPEWVEYDAEIRQLLDHLENKKQDTILTHDEL"}, "B2": {"name": "ERp44 (protein, UniProt Q9BS26 30-406)", "chain": "EITSLDTENIDEILNNADVALVNFYADWCRFSQMLHPIFEEASDVIKEEFPNENQVVFARVDCDQHSDIAQRYRISKYPTLKLFRNGMMMKREYRGQRSVKALADYIRQQKSDPIQEIRDLAEITTLDRSKRNIIGYFEQKDSDNYRVFERVANILHDDCAFLSAFGDVSKPERYSGDNIIYKPPGHSAPDMVYLGAMTNFDVTYNWIQDKCVPLVREITFENGEELTEEGLPFLILFHMKEDTESLEIFQNEVARQLISEKGTINFLHADCDKFRHPLLHIQKTPADCPVIAIDSFRHMYVFGDFKDVLIPGKLKQFVFDLHSGKLHREFHHGPDPTDTAPGEQAQDVASSPPESSFQKLAPSEYRYTLLRDRDEL"}, "B3": {"name": "ERGIC53 (protein, UniProt P49257 31-510)", "chain": "DGVGGDPAVALPHRRFEYKYSFKGPHLVQSDGTVPFWAHAGNAIPSSDQIRVAPSLKSQRGSVWTKTKAAFENWEVEVTFRVTGRGRIGADGLAIWYAENQGLEGPVFGSADLWNGVGIFFDSFDNDGKKNNPAIVIIGNNGQIHYDHQNDGASQALASCQRDFRNKPYPVRAKITYYQNTLTVMINNGFTPDKNDYEFCAKVENMIIPAQGHFGISAATGGLADDHDVLSFLTFQLTEPGKEPPTPDKEISEKEKEKYQEEFEHFQQELDKKKEEFQKGHPDLQGQPAEEIFESVGDRELRQVFEGQNRIHLEIKQLNRQLDMILDEQRRYVSSLTEEISKRGAGMPGQHGQITQQELDTVVKTQHEILRQVNEMKNSMSETVRLVSGMQHPGSAGGVYETTQHFIDIKEHLHIVKRDIDNLVQRNMPSNEKPKCPELPPFPSCLSTVHFIIFVVVQTVLFIGYIMYRSQQEAAAKKFF"}, "B4": {"name": "XTP3-B (ERLEC1) (protein, UniProt Q96DZ1 34-483)", "chain": "LPQLSDDIPFRVNWPGTEFSLPTTGVLYKEDNYVIMTTAHKEKYKCILPLVTSGDEEEEKDYKGPNPRELLEPLFKQSSCSYRIESYWTYEVCHGKHIRQYHEEKETGQKINIHEYYLGNMLAKNLLFEKEREAEEKEKSNEIPTKNIEGQMTPYYPVGMGNGTPCSLKQNRPRSSTVMYICHPESKHEILSVAEVTTCEYEVVILTPLLCSHPKYRFRASPVNDIFCQSLPGSPFKPLTLRQLEQQEEILRVPFRRNKEEDLQSTKEERFPAIHKSIAIGSQPVLTVGTTHISKLTDDQLIKEFLSGSYCFRGGVGWWKYEFCYGKHVHQYHEDKDSGKTSVVVGTWNQEEHIEWAKKNTARAYHLQDDGTQTVRMVSHFYGNGDICDITDKPRQVTVKLKCKESDSPHAVTVYMLEPHSCQYILGVESPVICKILDTADENGLLSLPN"}, "B5": {"name": "ERLIN1 (protein, UniProt O75477 1-348)", "chain": "MNMTQARVLVAAVVGLVAVLLYASIHKIEEGHLAVYYRGGALLTSPSGPGYHIMLPFITTFRSVQTTLQTDEVKNVPCGTSGGVMIYIDRIEVVNMLAPYAVFDIVRNYTADYDKTLIFNKIHHELNQFCSAHTLQEVYIELFDQIDENLKQALQKDLNLMAPGLTIQAVRVTKPKIPEAIRRNFELMEAEKTKLLIAAQKQKVVEKEAETERKKAVIEAEKIAQVAKIRFQQKVMEKETEKRISEIEDAAFLAREKAKADAEYYAAHKYATSNKHKLTPEYLELKKYQAIASNSKIYFGSNIPNMFVDSSCALKYSDIRTGRESSLPSKEALEPSGENVIQNKESTG"}, "B6": {"name": "ERLIN2 (protein, UniProt O94905 1-339)", "chain": "MAQLGAVVAVASSFFCASLFSAVHKIEEGHIGVYYRGGALLTSTSGPGFHLMLPFITSYKSVQTTLQTDEVKNVPCGTSGGVMIYFDRIEVVNFLVPNAVYDIVKNYTADYDKALIFNKIHHELNQFCSVHTLQEVYIELFDQIDENLKLALQQDLTSMAPGLVIQAVRVTKPNIPEAIRRNYELMESEKTKLLIAAQKQKVVEKEAETERKKALIEAEKVAQVAEITYGQKVMEKETEKKISEIEDAAFLAREKAKADAECYTAMKIAEANKLKLTPEYLQLMKYKAIASNSKIYFGKDIPNMFMDSAGSVSKQFEGLADKLSFGLEDEPLETATKEN"}, "B7": {"name": "ANKZF1 (protein, UniProt Q9H8Y5 1-726)", "chain": "MSPAPDAAPAPASISLFDLSADAPVFQGLSLVSHAPGEALARAPRTSCSGSGERESPERKLLQGPMDISEKLFCSTCDQTFQNHQEQREHYKLDWHRFNLKQRLKDKPLLSALDFEKQSSTGDLSSISGSEDSDSASEEDLQTLDRERATFEKLSRPPGFYPHRVLFQNAQGQFLYAYRCVLGPHQDPPEEAELLLQNLQSRGPRDCVVLMAAAGHFAGAIFQGREVVTHKTFHRYTVRAKRGTAQGLRDARGGPSHSAGANLRRYNEATLYKDVRDLLAGPSWAKALEEAGTILLRAPRSGRSLFFGGKGAPLQRGDPRLWDIPLATRRPTFQELQRVLHKLTTLHVYEEDPREAVRLHSPQTHWKTVREERKKPTEEEIRKICRDEKEALGQNEESPKQGSGSEGEDGFQVELELVELTVGTLDLCESEVLPKRRRRKRNKKEKSRDQEAGAHRTLLQQTQEEEPSTQSSQAVAAPLGPLLDEAKAPGQPELWNALLAACRAGDVGVLKLQLAPSPADPRVLSLLSAPLGSGGFTLLHAAAAAGRGSVVRLLLEAGADPTVQDSRARPPYTVAADKSTRNEFRRFMEKNPDAYDYNKAQVPGPLTPEMEARQATRKREQKAARRQREEQQQRQQEQEEREREEQRRFAALSDREKRALAAERRLAAQLGAPTSPIPDSAIVNTRRCWSCGASLQGLTPFHYLDFSFCSTRCLQDHRRQAGRPSS"}},
  "key": {"[1]": {"molecular_target": "T1, ER-degradation enhancing α-mannosidase-like (EDEM1) (UniProt Q92611)", "T1 sequence": "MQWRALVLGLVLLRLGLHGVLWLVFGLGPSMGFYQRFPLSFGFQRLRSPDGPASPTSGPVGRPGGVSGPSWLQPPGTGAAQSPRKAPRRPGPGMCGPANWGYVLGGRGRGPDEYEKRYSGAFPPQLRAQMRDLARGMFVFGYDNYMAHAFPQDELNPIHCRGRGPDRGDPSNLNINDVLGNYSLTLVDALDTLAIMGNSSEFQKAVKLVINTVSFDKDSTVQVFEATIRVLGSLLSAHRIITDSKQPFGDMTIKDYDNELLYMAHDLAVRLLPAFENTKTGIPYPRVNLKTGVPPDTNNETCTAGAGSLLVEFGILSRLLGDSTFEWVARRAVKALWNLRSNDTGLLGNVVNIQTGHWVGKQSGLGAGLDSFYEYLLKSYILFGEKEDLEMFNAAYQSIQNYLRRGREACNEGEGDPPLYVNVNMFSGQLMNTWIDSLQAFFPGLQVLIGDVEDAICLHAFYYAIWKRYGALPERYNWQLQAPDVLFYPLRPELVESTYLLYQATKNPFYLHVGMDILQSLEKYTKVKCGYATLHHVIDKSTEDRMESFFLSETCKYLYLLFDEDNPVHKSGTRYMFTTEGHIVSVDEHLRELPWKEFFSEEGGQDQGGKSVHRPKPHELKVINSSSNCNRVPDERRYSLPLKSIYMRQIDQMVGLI", "assay": "affinity purification with mass spectrometry; HEK293T overexpressing EDEM1 or an empty vector, lysed in 1% Triton X-100 buffer; immunoprecipitation with anti-EDEM1 antibodies, SDS-PAGE, in-gel digestion, LC-MS/MS; LFQ values of three biological replicates, t-test with permutation-based FDR, hierarchical clustering of GO-selected proteins (Figure 1A,B)"}, "[2]": {"molecular_target": "T1, ER-degradation enhancing α-mannosidase-like (EDEM1)", "assay": "affinity purification with mass spectrometry; HEK293T overexpressing EDEM1 or ∆-EDEM1, lysed in Triton X-100 or Digitonin buffer; immunoprecipitation with rabbit anti-EDEM1 antibodies, LC-MS/MS; spectral counts after subtraction of the empty-vector control (Figure 3A)"}, "[3]": {"molecular_target": "EDEM1 mutant lacking the IDR (∆-EDEM1)", "assay": "affinity purification with mass spectrometry; HEK293T overexpressing EDEM1 or ∆-EDEM1, lysed in Triton X-100 or Digitonin buffer; immunoprecipitation with rabbit anti-EDEM1 antibodies, LC-MS/MS; spectral counts after subtraction of the empty-vector control (Figure 3A)"}},
  "note": "No constants are given. Whether binding was seen depends on the method and setting. In cells and extracts the contact can be indirect. A yes stands for co-enrichment or nearness to the bait. Other partners may have been found. For some assays here: Tags and fused reporters may be left off the sequences shown.",
  "data": [
    {"molecule": "calreticulin (from UniProt P27797 18-417)", "values": [
      {"measurement": "binding", "setting": "[1]", "value": "binds"}
    ]},
    {"molecule": "UDP-Glucose, glycoprotein glucosyltransferase UGGT1 (from UniProt Q9NYU2 43-1555)", "values": [
      {"measurement": "binding", "setting": "[1]", "value": "binds"}
    ]},
    {"molecule": "GRP94/HSP90B1 (from UniProt P14625 22-803)", "values": [
      {"measurement": "binding", "setting": "[2]", "value": "binds"}
    ]},
    {"molecule": "PSMC6 (from UniProt P62333 1-389)", "values": [
      {"measurement": "binding", "setting": "[1]", "value": "binds"}
    ]},
    {"molecule": "DNAJB11 (from UniProt Q9UBS4 23-358)", "values": [
      {"measurement": "binding", "setting": "[1]", "value": "binds"}
    ]},
    {"molecule": "calnexin (from UniProt P27824 21-592)", "values": [
      {"measurement": "binding", "setting": "[1]", "value": "binds"}
    ]},
    {"molecule": "B1", "values": [
      {"measurement": "binding", "setting": "[1]", "value": "binds"}
    ]},
    {"molecule": "B2", "values": [
      {"measurement": "binding", "setting": "[1]", "value": "binds"}
    ]},
    {"molecule": "B3", "values": [
      {"measurement": "binding", "setting": "[1]", "value": "binds"}
    ]},
    {"molecule": "B4", "values": [
      {"measurement": "binding", "setting": "[3]", "value": "binds"},
      {"measurement": "binding", "setting": "[2]", "value": "binds"}
    ]},
    {"molecule": "B5", "values": [
      {"measurement": "binding", "setting": "[3]", "value": "binds"},
      {"measurement": "binding", "setting": "[2]", "value": "binds"}
    ]},
    {"molecule": "B6", "values": [
      {"measurement": "binding", "setting": "[3]", "value": "binds"},
      {"measurement": "binding", "setting": "[2]", "value": "binds"}
    ]},
    {"molecule": "B7", "values": [
      {"measurement": "binding", "setting": "[3]", "value": "binds"},
      {"measurement": "binding", "setting": "[2]", "value": "binds"}
    ]}
  ]
}
